The values that follow come from patent US20250034601A1, “HETERODIMERIC BENZALDEHYDE SYNTHASE, METHODS OF PRODUCING, AND USES THEREOF” (Purdue Research Foundation, priority 2021, published 2025).

Structures are written as SMILES.

Series [1] has as its system petunia flowers. Briefly: Labeling of VOCs after feeding deuterium labeled phenylalanine and benzoic acid to petunia flowers (GC-MS). Format: in vivo, Petunia hybrida. The note with it: percentage of labeling, volatiles collected 4 hours, means ± SE, n=3; for Labeling of VOCs after feeding ^2H8-Phenylalanine (%): 50 mM fed to excised limbs of 2-day-old petunia flowers for 2 hours; for Labeling of VOCs after feeding ^2H5-Benzoic acid (%): 100 mM fed to excised limbs of 2-day-old petunia flowers for 2 hours, n.d., not detected.

The subject of series [2] is pds-bsα-bsβ VIGS petunia flowers. Kind of series: Emission of volatiles from pds-bsα-bsβ VIGS petunia flowers. The note with it: 2-day-old VIGS flowers. Format: in vivo, Petunia hybrida. The procedure:
Petunia hybrida cv. Mitchell diploid (W115, Ball Seed Co., Oxford, Canada) plants were grown under standard greenhouse condition with a light period from 6:00 to 21:00 hour. To link the simultaneous downregulation of PhBSα and PhBSβ6 genes via virus induced gene silencing (VIGS) to the silencing of a marker gene, a previously generated pTRV2-PDS construct containing a 300 bp fragment of Nicotiana benthamiana Phytoene Desaturase (PDS) (CDS nucleotides 580˜879; SEQ ID NO: 11) was used (deposited with the National Center for Biotechnology Information (NCBI) GenBank and having the accession number DQ469932.1 (accepted Dec. 4, 2007)). […]
Petunia flower volatiles were collected by a closed-loop stripping method and analyzed by gas chromatography mass spectrometry (GC-MS) as described in Qian et al., Completion of the cytosolic post-chorismate phenylalanine biosynthetic pathway in plants, Nature Communications 10: 15 (2019), with minor modifications. […] The extracts were pooled together and concentrated to about 200 μL under a mild stream of nitrogen gas, and samples were analyzed on an Agilent 7890B-5977B gas chromatography mass spectrometry (GC-MS) system (Agilent Technologies, Inc., Santa Clara, CA) using an analytical method translated from an established method with the Agilent 6890N-5975B GC-MS system as previously described. […]

On to `O=C(OCc1ccccc1)c1ccccc1` [Alcohol moiety of Benzylbenzoate (91), Benzylbenzoate], for which, in series [1], the “Labeling of VOCs after feeding ^2H8-Phenylalanine (%)” value is on record as 10.80 ± 2.31% and the “Labeling of VOCs after feeding ^2H5-Benzoic acid (%)” value was 21.86 ± 4.98%. On the same counts, the results for `O=C(OCc1ccccc1)c1ccccc1` [Benzoyl moiety of Benzylbenzoate (105), Benzylbenzoate] are 7.76 ± 1.12% and 22.88 ± 5.54%. In the case of `O=C(OCCc1ccccc1)c1ccccc1` [phenylethylbenzoate], in series [2] (volatiles collected 20:00 to 21:00), the “increase of emission in pds-bsα-bsβ flowers relative to control” value is listed as 3.07 folds. With `O=C(OCc1ccccc1)c1ccccc1` [Benzylbenzoate (D5, 217), Benzylbenzoate], in series [1], the “Labeling of VOCs after feeding ^2H8-Phenylalanine (%)” value was 11.92 ± 1.90% and the “Labeling of VOCs after feeding ^2H5-Benzoic acid (%)” value stood at 24.33 ± 4.09%.

Turning to `C=CCc1ccc(O)c(OC)c1` [Eugenol (D5, 169), Eugenol], the “Labeling of VOCs after feeding ^2H8-Phenylalanine (%)” value in series [1] came to 5.79 ± 1.84%. Take `O=CCc1ccccc1` [Phenylacetaldehyde (D7 + D8, 97 + 98), Phenylacetaldehyde]: the “Labeling of VOCs after feeding ^2H8-Phenylalanine (%)” value in series [1] worked out at 29.76 ± 8.26%.

Consider `OCc1ccccc1` [Benzylalcohol (D5, 113), Benzylalcohol], for which, in series [1], the “Labeling of VOCs after feeding ^2H8-Phenylalanine (%)” value turned out to be 12.87 ± 3.36% and the “Labeling of VOCs after feeding ^2H5-Benzoic acid (%)” value was 12.37 ± 1.03%. Turning to `CC=Cc1ccc(O)c(OC)c1` [Isoeugenol (D5, 169), Isoeugenol], in series [2], the “change of emission in pds-bsα-bsβ flowers relative to control” value is “No statistically significant changes”. Further, the “Labeling of VOCs after feeding ^2H8-Phenylalanine (%)” value in series [1] was 4.94 ± 0.94%. With `COc1cc(C=O)ccc1O` [Vanillin (D4, 156), Vanillin], in series [1], the “Labeling of VOCs after feeding ^2H8-Phenylalanine (%)” value is listed as 4.41 ± 1.05%.

Take `O=C(OCc1ccccc1)c1ccccc1` [Benzylbenzoate (D10, 222), Benzylbenzoate]: in series [1], the “Labeling of VOCs after feeding ^2H8-Phenylalanine (%)” value was found to be 2.88 ± 0.64% and the “Labeling of VOCs after feeding ^2H5-Benzoic acid (%)” value turned out to be 9.97 ± 3.53%. Turning to `O=Cc1ccccc1` [Benzaldehyde (D5, 111), Benzaldehyde], in series [1], the “Labeling of VOCs after feeding ^2H8-Phenylalanine (%)” value worked out at 22.51 ± 5.45% and the “Labeling of VOCs after feeding ^2H5-Benzoic acid (%)” value is 23.03 ± 2.20%.
